Assay results reported in patent US20210284724A1.
These are yes or no findings as the source states them, for the method shown. Some results given as binding are weak or reduced against the parent protein; the word gives no strength.

Amino acid sequences for entries named in this document (tags omitted). A change or cut given only in a name is not applied to a line headed by its entry. Chains listed by the source or under a name are the forms on record and can include a tag or linker. Residues count along the entry.
cynomolgus CXCL13 (H6WS58, form named): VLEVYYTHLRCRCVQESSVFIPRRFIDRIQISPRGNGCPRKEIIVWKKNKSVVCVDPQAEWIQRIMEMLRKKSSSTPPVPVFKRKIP
UniProt O43927, residues 23-109: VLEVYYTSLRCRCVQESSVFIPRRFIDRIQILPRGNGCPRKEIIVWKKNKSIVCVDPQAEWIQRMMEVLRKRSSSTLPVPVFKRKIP
UniProt O55038, residues 22-109: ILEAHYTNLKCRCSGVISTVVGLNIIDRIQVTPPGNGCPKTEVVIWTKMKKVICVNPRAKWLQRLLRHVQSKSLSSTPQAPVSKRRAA

Tests used:
[1] = target: cynomolgus CXCL13 (cynomolgus) (UniProt H6WS58); assay: ELISA, full length IgG1
human CXCL13 (human) [2] = target: human CXCL13 (human) (UniProt O43927); assay: ELISA, full length IgG1
[3] = target: cynomolgus CXCL13 (cynomolgus) (UniProt H6WS58); assay: ELISA, cynoCXCL13 coated on the plate, full length humanized IgG1 titrated, OD450
[4] = target: cynomolgus CXCL13 (cynomolgus) (UniProt H6WS58); assay: ELISA, cynoCXCL13 coated on the plate, chimeric IgG1 titrated, OD450
[5] = target: cynomolgus CXCL13 (cynomolgus) (UniProt H6WS58); assay: ELISA, subclone supernatants
human CXCL13 (human) [6] = target: human CXCL13 (human) (UniProt O43927); assay: ELISA, subclone supernatants
mouse CXCL13 (mouse) = mouse CXCL13 (mouse) (UniProt O55038); assay: ELISA, subclone supernatants

B1: 71F4A3-VH1VL1 (Hz71F4) (D54E) humanized IgG1 (antibody, V domains shown)
VH: EVQLVESGGGLVQPGGSLRLSCAASGIDFSRYWMSWVRQAPGKGLEWVAEINPESSTINYAPSLKDRFTISRDNAKNSLYLQMNSLRAEDTAVYYCARQDDYEYYAMDYWGQGTTVTVSS
VL: DIQMTQSPSSLSASVGDRVTITCKASQDVNTGVAWYQQKPGKAPKLLIYSASYRYTGVPSRFSGSGSGTDFTFTISSLQPEDIATYYCQQYYSTPLTFGGGTKLEIK
binding [1]: binds | binding (human CXCL13 (human) [2]): binds | binding [3]: binds

B2: 71F4A3-VH1VL2 (D54E) humanized IgG1 (antibody, V domains shown)
VH: EVQLVESGGGLVQPGGSLRLSCAASGIDFSRYWMSWVRQAPGKGLEWVAEINPESSTINYAPSLKDRFTISRDNAKNSLYLQMNSLRAEDTAVYYCARQDDYEYYAMDYWGQGTTVTVSS
VL: DIQMTQSPSSLSASVGDRVTITCKASQDVNTGVAWYQQKPGKAPKLLIYSASYRYTGVPSRFSGSGSGTDFTFTISSVQPEDIATYYCQQYYSTPLTFGGGTKLEIK
binding [1]: binds | binding [3]: binds

B3: 64C10G1-VH1VL3 (D53E, D107E) humanized IgG1 (antibody, V domains shown)
VH: EVQLVESGGGLVQPGGSLRLSCAASGFTFSSYAMSWVRQAPGKGLEWVATISEGGSDAYYPDNVKGRFTISRDNAKNSLYLQMNSLRAEDTAVYYCARDYYGSGYEESPMDYWGQGTLVTVSS
VL: DIQMTQSPSSLSASVGDRVTITCKASQDINKYIAWYQQKPGKAPKLLIHYTSTLQPGIPSRFSGSGSGTDFTFTISSLQPEDFATYYCLQYDNLYTFGGGTKLEIK
binding [1]: binds | binding [3]: binds

B4: 64C10G1 chimeric human IgG1 antibody (antibody, V domains shown)
VH: EVQLVESGGGLVKPGGSLKLSCAASGFTFSSYAMSWVRQTPEKRLEWVATISDGGSDAYYPDNVKGRFTISRDNAKNNLYLQMSHLKSEDTAMYYCARDYYGSGYEDSPMDYWGQGTSVTVSS
VL: DIQMTQSPSSLSASLGGKVTITCKASQDINKYIAWYQHKPGKGPRLLIHYTSTLQPGIPSRFSGSGSGRDYSFSISNLEPEDFATYYCLQYDNLYTFGGGTKLEIK
binding [4]: binds

B5: 329F2E1 (antibody, V domains shown)
VH: EVKLLQSGGGLVQPGGSLKLSCAASGIDFSRYWMSWVRRAPGKGLEWIGEINPDSSTINYAPSLKDKFIISRDNAKNTLYLQMSKVRSEDTALYYCARQDDYDYYAMDYWGQGTSVTVSS
VL: DIVMTQSHKFMSTSVGDRVSITCKASQDVSTGVAWYQQKPGQSPKLLIYSASYRYTGVPDRFTGSGSRTDFTFTISSVQTEDPAVYYCHQYYTIPLTFGAGTELELK
binding [5]: binds

B6: 414D10F5 (antibody, V domains shown)
VH: EVQLAESGGGLVQPGRSLKLSCSASGFTFSDYYMAWFRQAPPKGLEWVASISYDGGDSFYRDSVKGRFTISRDNAKSSLYLQMDSLRSEDTATYYCTTEEDYSGSFPDYWGQGVMVTVSS
VL: DIQMTQSPSFLSASVGDRVTINCKASQNINKYLNWYQQKLGEAPKRLIYDTNNLQAGIPSRFSGSGSGTDYTLTINSLQPEDFATYFCLQHNSLYTFGGGTKLELK
binding (human CXCL13 (human) [6]): binds

B7: 21H12D9 (antibody, V domains shown)
VH: EVQLQQSGPVLVRPGASVKMSCKASGYTFTDYYMNWVKQSHGKSLEWIGVINPNNGGTTYKEKFKGKATLTVDKSSGTAYMELNSLTSEDSAVYYCARDDYDAGYWGQGTTLTVSS
VL: DIVMTQFQKFMSTTVGDRVSITCKASQNVDTAVAWYQHKPGQSPKLLIYSASHRYTGVPDRFTGSGSGTDFTLTISNVQSEDLADYFCQQYTDFPLTFGAGTKLELK
binding [5]: binds

B8: 408E3F3 (antibody, V domains shown)
VH: HVTLRESGPGVLQPSKTLSLTCSFSGFSLSTSAMVVSWIRQSSGMSLEWLAAIDWEGDKYYNPSLESRLTVSRDISDTQVFLRITSVDVADTATYYCAVMSSADSHSVLDAWGQGVSVTVSS
VL: DIKMTQSPSFLSASVGDRVTINCKASQNIHNYLNWYQQKFGEAPRLLIYNTNNLQTGIPSRFSGSGSGTDFTLTISSLQPEDVATYFCLQHSSSLTFGSGTKLEIN
binding [5]: binds | binding (human CXCL13 (human) [6]): binds

B9: 415A3D1F4 (antibody, V domains shown)
VH: EVKLLESGGGLVQAGGSMRLSCGAFGFTVTDFYINWIRQPAGKAPEWLGFMRNKANGYTTEYNPSVKGRFTISRNNTQNMPYLQMNTLRTEDTAIYYCARSRYNADDYYVGVMDVWGQGASVTVSS
VL: DIQMTQFPASLSASLGETVSIECLASEDIYNNLAWYQQKPGKSPQLLIYYTNSLQDGVPSRFSGTGSGTQYSLKINSLESEDAATYFCLQDSEYPWTFGGGTKLKLK
binding [5]: binds

B10: 1H3A11 (antibody, V domains shown)
VH: EVQLVESGGGLVKPGGSLKLSCAASGFTFSSYAMSWVRQTPEKRLEWVATISDGGSDTYYPDNVKGRFTISRDNAKNNLYLQMSHLKSEDTAMYYCARDYYGSSYEDYAMDYWGQGTSVTVSS
VL: DIQMTQSPSSLSASLGGKVTITCKASQDINKYITWYQHKPGKGPRLLIHYTSTLQPGIPSRFSGSGSGRDYSFSISNLEPEDIATYYCLQYDNLYTFGGGTKLEIK
binding [5]: binds

B11: 19H7E10 (antibody, V domains shown)
VH: EVQLQQSGPELVKPGASVKISCQASGYAFSDYYMNWVKQSHGKRLEWIGDINPNNDGTTYNQKFKDKATLTVDKSSSTAYMDLRSLTSEDSAVYYCARLSWSFFAMDYWGQGTSVTVSS
VL: DIVMTQSHKFMSTSVGDRVSITCKASQDVSSGVAWYQQKPGQSPKVLIYSASHRHTGVPDRFTASGSGTDFTFTISSVQAEDLAVYYCQQYYNTPWTFGGGTKLEIK
binding [5]: binds

B12: 411A11E9 (antibody, V domains shown)
VH: EVQLVESGGGLVQPGGSLKLSCVVSGFTFSDYYMAWVRQTPTKGLEWVASINYDGGDTYYRDSVKGRFTVSRNNAKSSLFLQMDSLRSEDTATYYCKTEEDYDGSYVMDAWGQGASVIVSS
VL: DIQMTQSPSFLSASVGDRVTISCKASQNINKELTWYQQKLGKAPKRLIYNTNILQTGIPSRFSGSGSNTDYTLTISSLQPEDFATYFCLQQSSLYTFGAGTKLELK
binding [5]: binds

B13: 64C10G1 (antibody, V domains shown)
VH: EVQLVESGGGLVKPGGSLKLSCAASGFTFSSYAMSWVRQTPEKRLEWVATISDGGSDAYYPDNVKGRFTISRDNAKNNLYLQMSHLKSEDTAMYYCARDYYGSGYEDSPMDYWGQGTSVTVSS
VL: DIQMTQSPSSLSASLGGKVTITCKASQDINKYIAWYQHKPGKGPRLLIHYTSTLQPGIPSRFSGSGSGRDYSFSISNLEPEDFATYYCLQYDNLYTFGGGTKLEIK
binding [5]: binds

B14: 430D9B3 (antibody, V domains shown)
VH: QVTLKESGPEILQPSQTLSLTCTFSGFSLSPYGMGVGWIRQPSGKGLEWLANIWWDDDKYYNPSLINRLTISKDTSNNQAFLKITNVDTTDSATYYCVRSELVMPYVPFDYWGQGVMVTVSS
VL: DIQMTQSPSSMSASLGDRVTITCQASQDIENDLIWFQQKPGKSPRPLIYYATNLANGVPSRFSGRRSESNYSLTISSLESEDMADYHCLQFKQYPYTFGAGTKLELK
binding (human CXCL13 (human) [6]): binds | binding (mouse CXCL13 (mouse)): binds

B15: 178B2E8 (antibody, V domains shown)
VH: EVKLVESEGGLVQPGSSMKLSCTASGFTFTDYYMTWVRQVPEKGLEWVANINYDGSRTNYLDSLKSRFIISRDNAKNILYLQMSSLKSEDTATYYCARDGNYHFYGMDYWGQGTSVTVSS
VL: DFVLTQSHKFMSTSVGDRVSITCKASQDVSTAVAWYQQKPGQSPQLLIYWASTRHTGVPDRFTGSGSGTDYTLTISSVQAEDLALYYCQQHYSTPWTFGGGTKLEIK
binding (human CXCL13 (human) [6]): binds
